Numbering of substitutions follows the chain as printed. Results are given in words; binding and its absence hold for the method and conditions named. A result given as binding can be weak or reduced; the word gives no strength.
B1: 110B4 chimeric anti-PD-L1 antibody (antibody, V domains shown)
VH: CQSVKESEGGLFKPTDTLTLTCKVSGIDLSSISISWVRQAPGNGLEWIGVINSYGNTYYASWAKSRSTITRNTNENTVTLKMTSLTAADTATYFCAKEILYYGMDLWGPGTLVTVSS
VL: DVVMTQTPASVEAAVGGTVTIKCQASQSISSYFSWYQQKPGQRPKLLIYDASNLESGVPSRFKGSRSGTEYTLTISDLEWDDAATYYCQCTYGSTSSSNYGNNFGGGTKVVVVR
B2: 115E2 chimeric anti-PD-L1 antibody (antibody, V domains shown)
VH: CQSVKESEGGLFKPMDTLTLTCTVSGIDLGSVAISWVRQAPGKGLEWIGTIGSSGSAYYASWAKSRSTITRNTNLNTVTLKMTSLTAADTASYFCAKEILYYGMDRWGPGTLVTVSS
VL: DVVMTQTPASVEASVGGTVTINCQASQSISSYLAWYQQKPGQPPKLLIYAASNLEPGVPSRFKGSGSGTEFTLTISDLECADAATYYCQATYGSTSSSDYGNAFGGGTKVVVVR
B3: 116F3 chimeric anti-PD-L1 antibody (antibody, V domains shown)
VH: B1 VH with K23T, S35G, V50T, N52S, S53D, Y54S, N56S, T57A, T92S
VL: DVVMTQTPASVSGAVGGTVTIKCQASEDIESYLAWYQQKPGQPPKLLIYAASNLEPGVPSRFKGSRSGTEYTLTITDLECDDAATYHCQATYGSTSSSDYGNAFGGGTKVVVVR
B4: 113F1 chimeric anti-PD-L1 antibody (antibody, V domains shown)
VH: B1 VH with K23T, S33A, V50T, N56S, K64Q, T92S, L106V
VL: B2 VL with S14A, N22K, P56S, F71Y, A81D, A90S, S94T, S97T
B5: 115C1 chimeric anti-PD-L1 antibody (antibody, V domains shown)
VH: CQSVKESEGGLFKPTDTLTLTCTVSGFSLSSVAVSWVRQAPGKGLEWIGTISYTGNTYYASWAKSRSTITRNTNENTVTLKMPSLTVADTATYFCAKEILYYGMDFWGPGTLVTVSS
VL: B2 VL with V2I, A9S, E12S, S14A, A50G, P56S, E70D, A90S, S97T
B6: 111H2 chimeric anti-PD-L1 antibody (antibody, V domains shown)
VH: QEQLVESGGGLVQPGGTLKLSCKGSGFDLSSNAMCWVRQAPGKGLEWIGCIVYGNCYYASWVNGRFTISSDNAQSSVDLQLNSLTAADTATYFCARDPAGSSVYTGGFNIWGPGTLVTVSS
VL: AIDMTQTPSPVSAAVGDTVTINCQASENIYSFLAWYQQKPGHSPKPLIYFASKLASGVPSRFKGSGSGTQFTLTISDVQCDDAATYYCQQTVSYKNADTAFGGGTKVVVVR
B7: 110H8 chimeric anti-PD-L1 antibody (antibody, V domains shown)
VH: B2 VH with M15T, G30S, A33S, K43N, S53A, S65R, R106L
VL: B2 VL with S14A, N22K, S31N, P43R, F71Y, S76T, A81D, Y87H, A90C

Biological target: cynomolgus PD-L1-his (cynomolgus)
Assay: binding ELISA, cynomolgus PD-L1-his coated

| Binder | binding |
| --- | --- |
| B1 | binds |
| B2 | binds |
| B3 | binds |
| B4 | binds |
| B5 | binds |
| B6 | binds |
| B7 | binds |
